Data reported in US8975249B2, “Heterocyclic compounds and uses thereof” (Celgene Avilomics Research, Inc., priority 2010, dated 2015).
At least one structure is not confirmed: it was looked up by name or label, or the drawing left a doubt.

Molecular target: EGFR double mutation L858R/T790M (H1975 cells) (Homo sapiens (Human), UniProt P00533, L858R/T790M)
Assay: Phospho-EGFR signaling immunoblot in H1975 cells
Assay type: cell-based
Conditions: signaling EC50 WT EGFR / H1975
Method: A431 human epidermoid carcinoma, H1975 human NSCLC and HCC827 human NSCLC adenocarcinoma cells were obtained from the American Type Culture Center (Manassas, Va.). A431 cells were grown in DMEM (Invitrogen, Carlsbad, Calif.) supplemented with 10% FBS (HyClone, South Logan, Utah) and 1% Penicillin-Streptomycin (P/S, Lonza, Walkersville, Md.).
All primary antibodies were obtained from Cell Signaling (Danvers, Mass.) and used at 1:1000. Secondary antibodies were used at 1:10,000. Goat anti-mouse IgG IRDye 800CW antibody was obtained from LiCor Biosciences (Lincoln, Nebr.) and goat anti-rabbit IgG Alexa Fluor 680 was obtained from Invitrogen.
Cells were grown in 12-well plates (Corning, Coring, N.Y.) to 90% confluence and then incubated in low-serum (0.1% FBS) media for 16-18 hr. […] A431 cells were then stimulated with 50 ng/ml EGF (Peprotech, Rocky Hill, N.J.) for 15 min. After treatment, cell monolayers were washed with cold PBS (Invitrogen) and immediately lysed by scrapping into 60 uL cold Cell Extraction Buffer (Invitrogen) supplemented with Complete Protease inhibitors (Roche, Indianapolis, Ind.) and PhosphoSTOP (Roche) phosphatase inhibitors.
Phospho-protein signals were quantitated using Odyssey Infrared Imaging (Li-Cor Biosciences).
To assess phosphor-EGFR signaling, blots were probed with rabbit anti-Phospho-EGFR (Y1068) and mouse total anti-EGFR antibodies. […]

C=CC(=O)Nc1cccc(Nc2nc(Nc3ccc(N4CCN(C(=O)CC)CC4)cc3OC)ncc2C(F)(F)F)c1 [Compound I-35, N-(3-(2-(2-methoxy-4-(4-propionylpiperazin-1-yl)phenylamino)-5-(trifluoromethyl)pyrimidin-4-ylamino)phenyl)acrylamide]
Ratio WT/mutant (H1975): >50
